Laboratory results: PubChem BioAssay AID504804 (Drosophila RNAi Screening Center, 2011)

Assay: 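Knock-downs shielding fly cells from apoptosis caused by DNA damage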 (primary screen)
Cell system: Drosophila Kc cells
Reagents: long dsRNA against Drosophila genes, 0.5 µg dsRNA per well
Duration: 96 h (48 h knock-down, then 48 h drug)
Treatment: doxorubicin 5 µg/ml for 48 h, added 48 h after dsRNA
Measurement: 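Viability measured as cellular ATP by luminescence after 48 h knock-down then 48 h doxorubicin at 5 µg/ml; unnormalised plate counts for each replicate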
Reading the numbers: raw ATP luminescence: higher = more viable cells, protection from doxorubicin
Call rule: 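Active when both duplicate wells lie at least 2 SD above the plate mean and protection is confirmed by rescreening and independent dsRNAs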
The screen tested about 19,000 reagents; below is a random part of those that have a named target and a result. Of all reagents, 47 (0.25%) got an active call. 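Signals are raw, not normalised; exact z-scores behind calls not deposited; actives needed confirmation, so some wells reaching 2 SD are inactive.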 Unmarked entries are inactive. The numbers tell different reagents against one gene apart. Names joined by + are all predicted targets of the reagent.

| predicted target | reagent | SD above plate mean | raw ATP luminescence, replicate 1 | raw ATP luminescence, replicate 2 |
| --- | --- | --- | --- | --- |
| CG7789 | 1 | 2 to 3 SD above plate mean (active) | – | – |
| CG12384 | 1 | – | 71760 | 44623 |
| CG34325 | 1 | – | 3.73e5 | 3.46e5 |
| CG34325 | 2 | – | 3.63e5 | 3.62e5 |
| AdipoR | 1 | – | 40617 | 40287 |
| Rrp46 | 1 | – | 68990 | 60997 |
| Pfdn4 | 1 | – | 78573 | 94133 |
| CG6481 | 1 | – | 2.15e5 | 2.38e5 |
| CG16826 | 1 | – | 36567 | 57477 |
| mRpS33 | 1 | – | 1.21e5 | 1.19e5 |
| CG2224 | 1 | – | 59720 | 51980 |
| CG2698 | 1 | – | 50510 | 63253 |
| Fit1 | 1 | – | 35043 | 42670 |
| CG6462 | 1 | – | 70357 | 82713 |
| Smyd5 | 1 | – | 32160 | 24650 |
| CG7542 | 1 | – | 36680 | 41423 |
| CG6923 | 1 | – | 64770 | 25100 |
| CG33140 | 1 | – | 72900 | 55037 |
| CG14383 | 1 | – | 81850 | 59240 |
| to | 1 | – | 70450 | 64050 |
| ND5 (retired record) | 1 | – | 2.82e5 | 2.73e5 |
| CG6231 | 1 | – | 64220 | 89740 |
| Mco1 | 1 | – | 42443 | 79977 |
| CG10597 | 1 | – | 2.15e5 | 2.52e5 |
| CG4835 | 1 | – | 71310 | 80987 |
| CG13031 | 1 | – | 75403 | 1.02e5 |
| CG34357 | 1 | – | 63747 | 58710 |
| CG34357 | 2 | – | 45413 | 43090 |
| CG34357 | 3 | – | 72520 | 60827 |
| bif | 1 | – | 1.64e5 | 1.67e5 |
| CG14416 | 1 | – | 45100 | 53500 |
| Ilp7 | 1 | – | 30910 | 42900 |
| CG5080 | 1 | – | 99383 | 49417 |
| AIMP2 | 1 | – | 46340 | 22347 |
| CG6928 | 1 | – | 36220 | 34843 |
| Rox8 | 1 | – | 67970 | 68850 |
| Chs2 | 1 | – | 66837 | 52817 |
| Tsp33B | 1 | – | 28193 | 47923 |
| CG34040 | 1 | – | 53927 | 55663 |
| CG11961 | 1 | – | 60143 | 55037 |
| Srp68 | 1 | – | 46367 | 38993 |
| CG14644 | 1 | – | 63307 | 61603 |
| CG5828 | 1 | – | 35847 | 54647 |
| CG12926 | 1 | – | 44130 | 66437 |
| dnk | 1 | – | 30330 | 31120 |
| primo-2 + primo-1 | 1 | – | 66690 | 80630 |
| Sap47 | 1 | – | 54007 | 63890 |
| CG11350 | 1 | – | 84377 | 79650 |
| r | 1 | – | 3.78e5 | 3.81e5 |
| r | 2 | – | 4.14e5 | 3.50e5 |
| CG6885 | 1 | – | 35860 | 28917 |
| Ctns | 1 | – | 83240 | 73820 |
| CG15345 (retired record) | 1 | – | 45670 | 53240 |
| CG43897 | 1 | – | 50650 | 43697 |
| CG43897 | 2 | – | 82303 | 80430 |
| Ilp5 | 1 | – | 1.41e5 | 1.55e5 |
| CG34309 | 1 | – | 66490 | 70270 |
| Df31 | 1 | – | 74580 | 59333 |
| mld | 1 | – | 1.06e5 | 1.27e5 |
| mld | 2 | – | 58340 | 46080 |
| IA-2 | 1 | – | 1.07e5 | 90810 |
| IA-2 | 2 | – | 85263 | 76320 |
| CG9380 | 1 | – | 30613 | 61843 |
| CG2901 | 1 | – | 42560 | 47450 |
| stil | 1 | – | 53977 | 47133 |
| cpx | 1 | – | 61557 | 54237 |
| CG33309 | 1 | – | 2.78e5 | 2.53e5 |
| atms | 1 | – | 35800 | 40620 |
| CG11920 | 1 | – | 30867 | 29377 |
| Jhbp5 | 1 | – | 65750 | 79060 |
| CG6665 | 1 | – | 63097 | 64933 |
| CG3868 | 1 | – | 24857 | 26310 |
| CG33232 (retired record) | 1 | – | 75193 | 69923 |
| dpr11 | 1 | – | 64800 | 58857 |
| dpr11 | 2 | – | 71680 | 56860 |
| dpr11 | 3 | – | 63607 | 65493 |
| CG33702 | 1 | – | 1.71e5 | 1.87e5 |
| Ran-like | 1 | – | 26697 | 23900 |
| hpRNA:CR32207 | 1 | – | 74043 | 59573 |
| Uev1A | 1 | – | 44127 | 43550 |
| CG7423 | 1 | – | 4.32e5 | 4.24e5 |
| CG34109 | 1 | – | 46510 | 82980 |
| CG34109 | 2 | – | 40863 | 58357 |
| CG34109 | 3 | – | 32603 | 64937 |
| CG13449 | 1 | – | 41590 | 34427 |
| Coq8 | 1 | – | 3.37e5 | 3.18e5 |
| Jhbp11 | 1 | – | 59340 | 37050 |
| CG18011 | 1 | – | 55537 | 59027 |
| CG18011 | 2 | – | 36880 | 1.01e5 |
| FBXO11 | 1 | – | 92443 | 31757 |
| l(1)G0020 | 1 | – | 52600 | 58490 |
| CG14355 | 1 | – | 52720 | 30687 |
| CG8478 | 1 | – | 61127 | 52393 |
| CG8236 | 1 | – | 63810 | 62593 |
| CG10343 | 1 | – | 27533 | 32513 |
| byn | 1 | – | 65503 | 64540 |
| Slc45-1 | 1 | – | 56187 | 63723 |
| CG30192 | 1 | – | 76837 | 52750 |
| Rpp20 + CG33932 | 1 | – | 2.49e5 | 2.59e5 |
| rgn | 1 | – | 25490 | 19720 |
| CR34254 | 1 | – | 48380 | 76907 |
| Dhrs4 | 1 | – | 40580 | 31377 |
| gt | 1 | – | 16610 | 17280 |
| Ing5 | 1 | – | 80300 | 88297 |
| Bulli | 1 | – | 79740 | 85687 |
| CG13685 | 1 | – | 69780 | 76353 |
| CG13039 | 1 | – | 47677 | 37603 |

13 entries from above, sorted by “raw ATP luminescence, replicate 1”, low to high.
| predicted target | reagent | SD above plate mean | raw ATP luminescence, replicate 1 | raw ATP luminescence, replicate 2 |
| --- | --- | --- | --- | --- |
| Ilp7 | 1 | – | 30910 | 42900 |
| Mco1 | 1 | – | 42443 | 79977 |
| CG14416 | 1 | – | 45100 | 53500 |
| CG34357 | 2 | – | 45413 | 43090 |
| AIMP2 | 1 | – | 46340 | 22347 |
| CG34357 | 1 | – | 63747 | 58710 |
| CG6231 | 1 | – | 64220 | 89740 |
| CG4835 | 1 | – | 71310 | 80987 |
| CG34357 | 3 | – | 72520 | 60827 |
| CG13031 | 1 | – | 75403 | 1.02e5 |
| CG5080 | 1 | – | 99383 | 49417 |
| bif | 1 | – | 1.64e5 | 1.67e5 |
| CG10597 | 1 | – | 2.15e5 | 2.52e5 |
